# Results are given in words; binding and its absence hold for the method and conditions named. In cells and extracts the contact can be indirect. Here binding means that the protein was enriched with, or labelled near, the bait; the list need not be complete. No binding means not detected with the bait. Sequences can lack the tags named with a protein.
# Sequences of proteins named here, by UniProt entry; tags and fusion partners are left off.
# UniProt A0A0H3JV59: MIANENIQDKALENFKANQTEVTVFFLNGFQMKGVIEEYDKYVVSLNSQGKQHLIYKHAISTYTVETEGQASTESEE
# T1: 3×FLAG-tagged S. aureus RNase R (S. aureus) (UniProt Q2G024)
# T1 sequence (chain, methylated Q538 (found by LC-MS/MS of the immunoprecipitated protein)): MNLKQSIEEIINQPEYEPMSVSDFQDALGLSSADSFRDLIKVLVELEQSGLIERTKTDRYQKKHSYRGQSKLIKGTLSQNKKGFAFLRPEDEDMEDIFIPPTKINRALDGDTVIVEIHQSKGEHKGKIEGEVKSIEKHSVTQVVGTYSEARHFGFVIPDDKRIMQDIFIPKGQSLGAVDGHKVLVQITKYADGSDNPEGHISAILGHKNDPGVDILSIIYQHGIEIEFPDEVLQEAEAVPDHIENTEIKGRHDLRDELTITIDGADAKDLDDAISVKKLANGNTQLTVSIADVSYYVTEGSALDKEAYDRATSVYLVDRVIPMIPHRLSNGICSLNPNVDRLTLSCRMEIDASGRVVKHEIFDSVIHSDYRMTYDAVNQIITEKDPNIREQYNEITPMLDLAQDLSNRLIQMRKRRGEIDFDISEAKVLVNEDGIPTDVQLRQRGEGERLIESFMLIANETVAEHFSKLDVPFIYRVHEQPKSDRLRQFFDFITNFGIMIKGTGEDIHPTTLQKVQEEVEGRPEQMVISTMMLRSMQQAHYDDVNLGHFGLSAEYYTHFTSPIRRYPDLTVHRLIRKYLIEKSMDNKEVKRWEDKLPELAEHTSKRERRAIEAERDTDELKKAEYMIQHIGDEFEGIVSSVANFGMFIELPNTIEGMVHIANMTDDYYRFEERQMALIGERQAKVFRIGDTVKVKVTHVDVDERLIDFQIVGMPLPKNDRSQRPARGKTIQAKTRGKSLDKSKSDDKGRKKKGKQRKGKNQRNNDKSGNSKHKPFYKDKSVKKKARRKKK
# B1: S. aureus hibernation-promoting factor (protein, UniProt Q2YSH7 1-190)
# chain: MIRFEIHGDNLTITDAIRNYIEEKIGKLERYFNDVPNAVAHVKVKTYSNSATKIEVTIPLKNVTLRAEERNDDLYAGIDLINNKLERQVRKYKTRINRKSRDRGDQEVFVAELQEMQETQVDNDAYDDNEIEIIRSKEFSLKPMDSEEAVLQMNLLGHDFFVFTDRETDGTSIVYRRKDGKYGLIQTSEQ
# Biological target: T1, 3×FLAG-tagged S. aureus RNase R (S. aureus)
# Assay: affinity purification with mass spectrometry; 3×FLAG-Rnr from S. aureus lysate held on anti-FLAG M2 magnetic beads; buffer C (50 mM Tris-Cl pH 7.5, 100 mM KCl, 1 mM PMSF, 10 mM MgCl2); 1 h at ~22°C and 15 h at 4°C; eluted with glycine pH 2.6; LC-MS/MS; untagged control in parallel
row,binding,Molecule
1,no binding,B1

# Biological target: T1, 3×FLAG-tagged S. aureus RNase R (S. aureus)
# Assay: as above
# Remark: another data set of the same source
row,binding,Molecule
1,binds,30S ribosomal protein uS12
2,no binding,S. aureus Hfq (from UniProt A0A0H3JV59 1-77)
3,no binding,S. aureus PNPase (enzyme)
4,no binding,S. aureus SmpB (protein of the tmRNA-SmpB complex)
5,no binding,S. aureus YbeY (enzyme)
